In the M2OR odorant receptor database:
Positions count from the first letter of the chain named. This is a selection; strong and weak results do not stand in their true shares. Calls are pooled over several reports, among them a noisy single-well screen. The list shows a part of the results. This is one part of the list.

Chains of the proteins cited; added tags and fusions are not shown. Chains listed by the source or under a name are the forms on record and can include a tag or linker.
OR2W1, as listed by the source: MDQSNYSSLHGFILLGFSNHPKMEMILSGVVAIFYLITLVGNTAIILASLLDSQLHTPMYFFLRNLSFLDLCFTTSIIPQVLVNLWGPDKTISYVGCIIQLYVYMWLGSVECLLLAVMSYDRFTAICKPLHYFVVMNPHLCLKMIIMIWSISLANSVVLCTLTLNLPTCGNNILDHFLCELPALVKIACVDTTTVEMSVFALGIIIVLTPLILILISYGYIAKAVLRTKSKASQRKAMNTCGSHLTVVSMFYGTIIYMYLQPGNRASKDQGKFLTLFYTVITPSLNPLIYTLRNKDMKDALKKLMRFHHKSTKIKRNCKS

Experiments:
Details in all cases: stereoisomer not certain
OR2W1 [1] = tested on: T1, OR2W1
T1 sequence (whole entry): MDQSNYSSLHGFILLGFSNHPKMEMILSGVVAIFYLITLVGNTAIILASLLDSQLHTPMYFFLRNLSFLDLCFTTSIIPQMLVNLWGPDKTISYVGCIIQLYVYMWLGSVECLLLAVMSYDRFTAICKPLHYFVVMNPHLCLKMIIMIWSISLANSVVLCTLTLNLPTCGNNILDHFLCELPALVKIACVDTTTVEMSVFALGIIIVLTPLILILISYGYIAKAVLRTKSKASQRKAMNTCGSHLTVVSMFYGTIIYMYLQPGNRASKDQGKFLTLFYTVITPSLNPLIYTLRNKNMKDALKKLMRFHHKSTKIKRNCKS
How it was run: (§1)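 Assay methods differ from source to source, frequently being transient luciferase assays in mammalian cell lines. For each receptor–molecule pair, the label responsive (active) applies when the original authors judged the measured signal statistically different from baseline, and non-responsive (inactive) applies otherwise.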

OR2W3 (Homo sapiens) = molecular target: T2, OR2W3 (Homo sapiens) (UniProt Q7Z3T1)
T2 sequence (whole entry): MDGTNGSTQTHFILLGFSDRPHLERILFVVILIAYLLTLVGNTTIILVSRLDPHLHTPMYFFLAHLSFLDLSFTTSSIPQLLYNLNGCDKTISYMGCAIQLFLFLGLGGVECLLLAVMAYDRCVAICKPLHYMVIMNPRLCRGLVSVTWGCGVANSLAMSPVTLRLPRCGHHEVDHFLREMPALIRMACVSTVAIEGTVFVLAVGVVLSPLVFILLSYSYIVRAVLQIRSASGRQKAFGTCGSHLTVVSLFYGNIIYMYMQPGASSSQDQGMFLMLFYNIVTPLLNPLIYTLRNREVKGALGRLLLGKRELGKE
How it was run: as §1

OR2W3 = tested on: T3, OR2W3
T3 sequence (whole entry): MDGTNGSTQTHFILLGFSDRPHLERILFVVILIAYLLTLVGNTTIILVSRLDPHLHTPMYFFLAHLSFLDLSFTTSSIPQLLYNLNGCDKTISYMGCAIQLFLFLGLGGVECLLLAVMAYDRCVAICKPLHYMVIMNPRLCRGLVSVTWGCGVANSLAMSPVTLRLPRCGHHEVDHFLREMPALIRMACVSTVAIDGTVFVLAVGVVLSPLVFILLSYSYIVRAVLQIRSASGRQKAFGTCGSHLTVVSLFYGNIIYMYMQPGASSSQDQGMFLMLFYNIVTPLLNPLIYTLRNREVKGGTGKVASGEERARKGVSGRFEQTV
How it was run: as §1

OR2W5P (Homo sapiens) = molecular target: T4, OR2W5P (Homo sapiens) (UniProt A6NFC9)
T4 sequence (whole entry): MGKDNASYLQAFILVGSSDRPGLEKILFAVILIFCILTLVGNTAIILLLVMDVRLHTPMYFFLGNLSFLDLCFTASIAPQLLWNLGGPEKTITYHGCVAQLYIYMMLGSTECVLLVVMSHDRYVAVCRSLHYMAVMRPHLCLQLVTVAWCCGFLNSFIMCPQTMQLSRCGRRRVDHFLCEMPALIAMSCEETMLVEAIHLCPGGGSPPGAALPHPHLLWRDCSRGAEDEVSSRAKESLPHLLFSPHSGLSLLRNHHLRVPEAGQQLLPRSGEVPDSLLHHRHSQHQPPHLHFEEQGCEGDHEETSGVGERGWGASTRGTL
How it was run: as §1

OR2Y1 = tested on: T5, OR2Y1
T5 sequence (whole entry): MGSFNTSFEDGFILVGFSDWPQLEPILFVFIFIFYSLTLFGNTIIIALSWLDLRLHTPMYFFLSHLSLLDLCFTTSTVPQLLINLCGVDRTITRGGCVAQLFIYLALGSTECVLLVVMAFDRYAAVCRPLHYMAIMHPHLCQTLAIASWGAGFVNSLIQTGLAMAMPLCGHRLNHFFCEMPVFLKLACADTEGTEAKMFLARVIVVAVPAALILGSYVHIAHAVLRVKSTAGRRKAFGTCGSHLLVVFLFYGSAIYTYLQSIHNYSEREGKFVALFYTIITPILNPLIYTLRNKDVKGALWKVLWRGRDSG
How it was run: as §1

OR2Z1 (Homo sapiens) = molecular target: T6, OR2Z1 (Homo sapiens) (UniProt Q8NG97)
T6 sequence (whole entry): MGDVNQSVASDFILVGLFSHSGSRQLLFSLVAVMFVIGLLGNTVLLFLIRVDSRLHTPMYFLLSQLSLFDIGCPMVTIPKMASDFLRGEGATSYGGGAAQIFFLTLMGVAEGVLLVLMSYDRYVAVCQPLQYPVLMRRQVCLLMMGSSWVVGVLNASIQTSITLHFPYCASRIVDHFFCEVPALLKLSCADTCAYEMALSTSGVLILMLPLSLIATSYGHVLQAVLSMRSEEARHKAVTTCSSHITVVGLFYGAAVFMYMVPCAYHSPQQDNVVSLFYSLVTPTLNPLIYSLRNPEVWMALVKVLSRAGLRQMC
How it was run: as §1

OR3A1 (Homo sapiens) = molecular target: T7, OR3A1 (Homo sapiens) (UniProt P47881)
T7 sequence (whole entry): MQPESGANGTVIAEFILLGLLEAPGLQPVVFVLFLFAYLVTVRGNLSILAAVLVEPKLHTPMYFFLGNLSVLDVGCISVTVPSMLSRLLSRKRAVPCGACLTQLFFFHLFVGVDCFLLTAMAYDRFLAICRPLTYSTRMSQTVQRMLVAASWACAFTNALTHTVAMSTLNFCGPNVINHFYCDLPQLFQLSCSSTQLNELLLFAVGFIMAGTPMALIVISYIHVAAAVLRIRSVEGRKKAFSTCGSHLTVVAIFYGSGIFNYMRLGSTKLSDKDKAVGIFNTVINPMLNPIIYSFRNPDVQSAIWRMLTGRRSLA
How it was run: as §1

OR3A2 (Homo sapiens) = molecular target: T8, OR3A2 (Homo sapiens) (UniProt P47893)
T8 sequence (whole entry): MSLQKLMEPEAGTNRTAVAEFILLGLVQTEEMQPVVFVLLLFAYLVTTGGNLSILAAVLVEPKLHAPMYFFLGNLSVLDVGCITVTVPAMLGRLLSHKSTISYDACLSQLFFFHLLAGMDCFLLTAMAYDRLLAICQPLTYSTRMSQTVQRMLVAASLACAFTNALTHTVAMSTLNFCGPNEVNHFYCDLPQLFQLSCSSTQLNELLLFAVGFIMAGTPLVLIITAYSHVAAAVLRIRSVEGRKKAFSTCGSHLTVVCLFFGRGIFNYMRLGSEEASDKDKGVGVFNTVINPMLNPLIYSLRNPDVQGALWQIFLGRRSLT
How it was run: as §1

OR3A3 = tested on: T9, OR3A3
T9 sequence (whole entry): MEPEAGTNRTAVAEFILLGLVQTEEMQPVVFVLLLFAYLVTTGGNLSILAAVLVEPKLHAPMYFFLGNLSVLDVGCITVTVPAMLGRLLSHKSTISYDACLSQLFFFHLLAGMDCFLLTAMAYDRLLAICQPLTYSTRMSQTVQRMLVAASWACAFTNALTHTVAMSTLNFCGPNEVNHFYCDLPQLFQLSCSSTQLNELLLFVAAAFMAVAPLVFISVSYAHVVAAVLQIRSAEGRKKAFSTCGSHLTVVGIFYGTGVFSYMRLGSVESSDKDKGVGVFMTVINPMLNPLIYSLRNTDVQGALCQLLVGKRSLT
How it was run: as §1

OR3A4 = tested on: T10, OR3A4
T10 sequence (whole entry): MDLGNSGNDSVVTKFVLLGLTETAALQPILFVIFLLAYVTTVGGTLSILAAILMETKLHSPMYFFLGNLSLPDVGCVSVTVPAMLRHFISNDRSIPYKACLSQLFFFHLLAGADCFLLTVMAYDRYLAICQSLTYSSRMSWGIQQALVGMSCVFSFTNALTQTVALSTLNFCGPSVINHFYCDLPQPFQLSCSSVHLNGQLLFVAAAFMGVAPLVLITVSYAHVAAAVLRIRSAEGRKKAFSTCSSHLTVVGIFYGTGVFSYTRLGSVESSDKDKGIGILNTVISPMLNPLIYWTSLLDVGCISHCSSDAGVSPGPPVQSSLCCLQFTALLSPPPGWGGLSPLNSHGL
How it was run: as §1

OR4A16 (Homo sapiens) = molecular target: T11, OR4A16 (Homo sapiens) (UniProt Q8NH70)
T11 sequence (whole entry): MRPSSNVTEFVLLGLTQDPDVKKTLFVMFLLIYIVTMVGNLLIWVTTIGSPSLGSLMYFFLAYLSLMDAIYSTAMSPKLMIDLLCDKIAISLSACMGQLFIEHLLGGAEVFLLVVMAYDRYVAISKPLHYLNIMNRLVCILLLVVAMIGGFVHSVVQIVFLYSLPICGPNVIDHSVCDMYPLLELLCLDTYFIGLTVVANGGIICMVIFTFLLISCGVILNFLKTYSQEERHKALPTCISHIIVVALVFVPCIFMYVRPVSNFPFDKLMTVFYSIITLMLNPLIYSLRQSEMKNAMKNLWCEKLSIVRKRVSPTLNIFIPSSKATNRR
How it was run: as §1

OR4A4P (Homo sapiens) = molecular target: T12, OR4A4P (Homo sapiens) (UniProt Q8NGN8)
T12 sequence (whole entry): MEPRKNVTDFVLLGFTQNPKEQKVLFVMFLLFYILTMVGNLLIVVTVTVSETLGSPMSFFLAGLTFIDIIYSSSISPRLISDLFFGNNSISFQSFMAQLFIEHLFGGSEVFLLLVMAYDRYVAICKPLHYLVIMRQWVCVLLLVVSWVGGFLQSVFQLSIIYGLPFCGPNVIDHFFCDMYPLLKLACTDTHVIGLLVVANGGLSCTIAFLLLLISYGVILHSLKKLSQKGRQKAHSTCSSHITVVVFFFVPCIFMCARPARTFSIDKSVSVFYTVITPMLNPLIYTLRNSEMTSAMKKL
How it was run: as §1

OR4A5 (Homo sapiens) = molecular target: T13, OR4A5 (Homo sapiens) (UniProt Q8NH83)
T13 sequence (whole entry): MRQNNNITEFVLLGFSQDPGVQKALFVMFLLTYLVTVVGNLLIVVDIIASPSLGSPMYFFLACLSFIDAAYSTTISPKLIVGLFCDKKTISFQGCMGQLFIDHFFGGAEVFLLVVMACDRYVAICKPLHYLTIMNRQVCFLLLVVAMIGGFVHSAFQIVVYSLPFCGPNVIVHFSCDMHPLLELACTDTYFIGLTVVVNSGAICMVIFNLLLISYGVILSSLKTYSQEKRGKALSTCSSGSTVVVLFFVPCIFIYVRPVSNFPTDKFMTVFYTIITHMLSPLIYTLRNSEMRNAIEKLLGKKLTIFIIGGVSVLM
How it was run: as §1

OR4A5 = tested on: T14, OR4A5
T14 sequence (whole entry): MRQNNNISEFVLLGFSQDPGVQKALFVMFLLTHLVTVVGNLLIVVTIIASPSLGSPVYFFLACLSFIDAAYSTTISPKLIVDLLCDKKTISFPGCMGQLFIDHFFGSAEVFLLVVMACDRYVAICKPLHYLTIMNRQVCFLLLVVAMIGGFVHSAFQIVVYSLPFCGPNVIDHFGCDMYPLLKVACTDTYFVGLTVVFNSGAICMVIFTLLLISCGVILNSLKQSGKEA
How it was run: as §1

OR4B1 (Homo sapiens) = molecular target: T15, OR4B1 (Homo sapiens) (UniProt Q8NGF8)
T15 sequence (whole entry): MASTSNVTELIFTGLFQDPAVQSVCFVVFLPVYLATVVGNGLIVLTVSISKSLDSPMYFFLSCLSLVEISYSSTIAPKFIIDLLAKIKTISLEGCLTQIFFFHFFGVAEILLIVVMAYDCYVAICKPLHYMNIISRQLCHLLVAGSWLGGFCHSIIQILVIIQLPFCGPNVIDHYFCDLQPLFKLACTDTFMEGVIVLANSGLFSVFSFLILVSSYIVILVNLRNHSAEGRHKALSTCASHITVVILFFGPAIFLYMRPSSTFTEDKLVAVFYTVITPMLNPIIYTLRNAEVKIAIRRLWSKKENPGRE
How it was run: as §1

OR4C11 (Homo sapiens) = molecular target: T16, OR4C11 (Homo sapiens) (UniProt Q6IEV9)
T16 sequence (whole entry): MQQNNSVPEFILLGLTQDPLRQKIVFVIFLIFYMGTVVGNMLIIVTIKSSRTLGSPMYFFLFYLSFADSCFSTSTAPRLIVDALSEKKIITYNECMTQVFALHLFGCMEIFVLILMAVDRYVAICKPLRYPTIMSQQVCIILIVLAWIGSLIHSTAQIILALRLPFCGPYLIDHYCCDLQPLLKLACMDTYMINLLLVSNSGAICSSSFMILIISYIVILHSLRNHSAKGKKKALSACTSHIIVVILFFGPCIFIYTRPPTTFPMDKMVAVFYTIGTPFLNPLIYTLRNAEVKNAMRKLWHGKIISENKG
How it was run: as §1

OR2W1 [2] = tested on: T17, OR2W1; remark: listed apart in the source
T17 sequence (whole entry): T1 sequence (whole entry) with M81V, N296D
How it was run: as §1

| SMILES | odorant receptor agonist call (OR2W1 [1]) | odorant receptor agonist call (OR2W3 (Homo sapiens)) | odorant receptor agonist call (OR2W3) | odorant receptor agonist call (OR2W5P (Homo sapiens)) | odorant receptor agonist call (OR2Y1) | odorant receptor agonist call (OR2Z1 (Homo sapiens)) | odorant receptor agonist call (OR3A1 (Homo sapiens)) | odorant receptor agonist call (OR3A2 (Homo sapiens)) | odorant receptor agonist call (OR3A3) | odorant receptor agonist call (OR3A4) | odorant receptor agonist call (OR4A16 (Homo sapiens)) | odorant receptor agonist call (OR4A4P (Homo sapiens)) | odorant receptor agonist call (OR4A5 (Homo sapiens)) | odorant receptor agonist call (OR4A5) | odorant receptor agonist call (OR4B1 (Homo sapiens)) | odorant receptor agonist call (OR4C11 (Homo sapiens)) | odorant receptor agonist call (OR2W1 [2]) |
| --- | --- | --- | --- | --- | --- | --- | --- | --- | --- | --- | --- | --- | --- | --- | --- | --- | --- |
| COc1cc(C=O)ccc1O | inactive | inactive | inactive | inactive | inactive | inactive | inactive | inactive | inactive | active | inactive | inactive | inactive | inactive | inactive | inactive |  |
| CC=Cc1ccc(O)c(OC)c1 | active |  | active | inactive | inactive | inactive | inactive | active | active | active | inactive | inactive | active | inactive | inactive | inactive |  |
| CCCCCCCCCCC=O | inactive | inactive | inactive | inactive | inactive | inactive | inactive | inactive | inactive | inactive | inactive | inactive | inactive | inactive | inactive | inactive |  |
| C=CC(C)(O)CCC=C(C)C (centres undefined) | active | inactive | inactive | inactive | inactive | inactive | inactive | inactive | inactive | inactive | inactive | inactive | inactive | inactive | inactive | inactive | inactive |
